Values from PubChem BioAssay AID652259 (Drosophila RNAi Screening Center, 2013)
Test: 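Genome-wide hunt for genes that control Wingless pathway activity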 (primary screen). Cell system: Drosophila clone 8 imaginal disc epithelial cells. Reagents: long dsRNA against Drosophila genes. Treatment: pathway stimulated by co-transfected Wingless expression plasmid. Read-out: 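Dual luciferase reads per well after Wingless plasmid stimulation: reporter firefly light and Renilla control light; activity is firefly divided by Renilla, a ratio not deposited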. Scale: firefly reporter light: higher = more Wg reporter light, before normalisation; Renilla control light: higher = more transfected or surviving cells. Rule for the call: 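a knock-down is a candidate when at least two out of four statistical tests show it departing from its plate mean; one test alone signals a weak candidate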. Calls: active = candidate regulator (raises or lowers reporter); inactive = not a candidate.
The screen tested about 22,000 reagents; this is a random part of those with a known target gene and a result. Over the whole deposit, 233 (1.1%) are marked active. 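Light values are raw, unnormalised plate reads; the ratio scores behind the reporter calls were not deposited.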 Entries without a mark were called inactive. Names joined by + are all predicted targets of the reagent. Not stated in the record: the amount of reagent, the time to read-out, the dose of the treatment.

| gene | PubChem SID | reporter change call, replicate 1 | firefly reporter light, replicate 1 | firefly reporter light, replicate 2 | Renilla control light, replicate 1 | Renilla control light, replicate 2 |
| --- | --- | --- | --- | --- | --- | --- |
| Hug | SID104196761 | – | 15339 | – | 4061 | – |
| sisA | SID104200166 | – | 21098 | – | 8489 | – |
| CG14624 | SID104198426 | – | 19009 | – | 7765 | – |
| CG3473 | SID104181707 | – | 4920 | 11095 | 2064 | 4522 |
| Cpr64Aa | SID104188252 | – | 9670 | – | 2569 | – |
| ND-42 | SID104196546 | – | 3516 | 4432 | 1145 | 1257 |
| CG32121 | SID104189057 | – | 5108 | – | 1191 | – |
| CG11970 | SID104193949 | – | 5745 | – | 1488 | – |
| CG7453 | SID104199838 | – | 20891 | – | 9504 | – |
| HSPBAP1 | SID104194359 | – | 6504 | – | 2391 | – |
| CG4338 | SID104195356 | – | 4791 | – | 2362 | – |
| CG15719 | SID104199477 | – | 24833 | – | 11522 | – |
| a10 | SID104191111 | – | 8804 | – | 3568 | – |
| ttm2 | SID104188060 | – | 5051 | – | 2198 | – |
| Akr1B | SID104190373 | – | 4547 | – | 2258 | – |
| CG32603 | SID104199201 | – | 28101 | – | 13859 | – |
| CG32603 | SID104201293 | – | 6.36e5 | 6.48e5 | 3.66e5 | 2.52e5 |
| CG42534 | SID104194514 | – | 3713 | – | 919 | – |
| CG42534 | SID104194551 | – | 5003 | – | 1133 | – |
| CG42534 | SID104195864 | – | 6855 | – | 2682 | – |
| CG11099 | SID104185826 | – | 9372 | – | 3136 | – |
| SkpA | SID104198625 | Wg reporter activity raised (active) | 11418 | 20736 | 708 | 1106 |
| Cdc5 | SID104188369 | – | 15802 | – | 2394 | – |
| Spn42Db | SID104184801 | – | 1556 | 4083 | 131 | 2181 |
| Cpr51A | SID104185761 | – | 8083 | – | 2512 | – |
| ItgaPS4 | SID104186422 | – | 5617 | – | 2220 | – |
| LysD + LysB + LysC (retired record) | SID104201041 | – | 18882 | – | 9472 | – |
| Pect | SID104182659 | – | 14853 | – | 2186 | – |
| Pect | SID104182660 | – | 2685 | 8501 | 1010 | 2611 |
| Dcp-1 | SID104184401 | – | 15875 | – | 4466 | – |
| CG9646 | SID104187134 | – | 5829 | – | 1556 | – |

Next part (2 carried over from the part before).
| gene | PubChem SID | reporter change call, replicate 1 | firefly reporter light, replicate 1 | firefly reporter light, replicate 2 | Renilla control light, replicate 1 | Renilla control light, replicate 2 |
| --- | --- | --- | --- | --- | --- | --- |
| Dcp-1 | SID104184401 | – | 15875 | – | 4466 | – |
| CG9646 | SID104187134 | – | 5829 | – | 1556 | – |
| CG8891 | SID104182912 | – | 4178 | 7340 | 1092 | 2213 |
| mRpL41 | SID104186049 | – | 4851 | – | 1900 | – |
| Uba4 | SID104181986 | – | 1716 | 7239 | 656 | 2600 |
| peb | SID104198609 | – | 30918 | – | 9216 | – |
| CG43071 | SID104185545 | – | 11232 | – | 7021 | – |
| GlnRS | SID104193932 | – | 7843 | 7296 | 1172 | 775 |
| CG30338 | SID104184958 | – | 15299 | – | 8996 | – |
| Elo68beta | SID104189652 | – | 9573 | – | 3888 | – |
| CG6614 | SID104182766 | – | 5611 | – | 3164 | – |
| Or67c | SID104191034 | – | 5035 | – | 2020 | – |
| CG3706 | SID104198441 | – | 32992 | – | 17968 | – |
| fd96Cb | SID104196739 | – | 11270 | – | 11202 | – |
| LanA | SID104190999 | – | 4176 | – | 1826 | – |
| CG13315 | SID104189778 | – | 1408 | 7544 | 1507 | 3110 |
| CR18166 | SID104197052 | – | 3860 | – | 1303 | – |
| CR18166 | SID104197939 | – | 15895 | – | 8165 | – |
| Jabba | SID104186313 | – | 17584 | – | 4112 | – |
| CG33704 | SID104183630 | – | 12172 | – | 6806 | – |
| Aplip1 | SID104187739 | – | 5057 | – | 2039 | – |
| Aplip1 | SID104188489 | – | 6355 | – | 2966 | – |
| Aplip1 | SID104201294 | – | 5.09e5 | 6.42e5 | 2.64e5 | 2.09e5 |
| Ak2 | SID104183835 | – | 1962 | 8938 | 629 | 2667 |
| Elba3 | SID104180261 | – | 13840 | – | 6010 | – |
| CG34163 | SID104181011 | – | 13778 | – | 6499 | – |
| Psf3 | SID104198008 | – | 12528 | – | 10145 | – |
| Psf3 | SID104201217 | – | 4.37e5 | 4.62e5 | 2.03e5 | 1.67e5 |
| Cpsf100 | SID104193938 | – | 2400 | 4864 | 1645 | 944 |
| CG4363 | SID104184257 | – | 2264 | 9370 | 589 | 2546 |
| Mtch | SID104188471 | – | 11636 | – | 4581 | – |
| CycD | SID104200025 | – | 13514 | – | 7188 | – |
| ArgRS | SID104199930 | – | 15937 | – | 10018 | – |
| CG4438 | SID104182538 | – | 2666 | 5063 | 898 | 2314 |
| Pka-C3 | SID104189194 | – | 4177 | – | 1504 | – |
| Pka-C3 | SID104191046 | – | 4857 | – | 3316 | – |
| Ugt37A1 | SID104181906 | – | 5157 | 5968 | 909 | 2652 |
| IKKepsilon | SID104183342 | – | 2166 | 5388 | 683 | 2557 |
| CG13659 | SID104194452 | – | 24192 | – | 17546 | – |
